{"sequences": {"note": "Amino acid sequences for entries named in this document (tags omitted). A change or cut given only in a name is not applied to a line headed by its entry.", "UniProt Q07343": "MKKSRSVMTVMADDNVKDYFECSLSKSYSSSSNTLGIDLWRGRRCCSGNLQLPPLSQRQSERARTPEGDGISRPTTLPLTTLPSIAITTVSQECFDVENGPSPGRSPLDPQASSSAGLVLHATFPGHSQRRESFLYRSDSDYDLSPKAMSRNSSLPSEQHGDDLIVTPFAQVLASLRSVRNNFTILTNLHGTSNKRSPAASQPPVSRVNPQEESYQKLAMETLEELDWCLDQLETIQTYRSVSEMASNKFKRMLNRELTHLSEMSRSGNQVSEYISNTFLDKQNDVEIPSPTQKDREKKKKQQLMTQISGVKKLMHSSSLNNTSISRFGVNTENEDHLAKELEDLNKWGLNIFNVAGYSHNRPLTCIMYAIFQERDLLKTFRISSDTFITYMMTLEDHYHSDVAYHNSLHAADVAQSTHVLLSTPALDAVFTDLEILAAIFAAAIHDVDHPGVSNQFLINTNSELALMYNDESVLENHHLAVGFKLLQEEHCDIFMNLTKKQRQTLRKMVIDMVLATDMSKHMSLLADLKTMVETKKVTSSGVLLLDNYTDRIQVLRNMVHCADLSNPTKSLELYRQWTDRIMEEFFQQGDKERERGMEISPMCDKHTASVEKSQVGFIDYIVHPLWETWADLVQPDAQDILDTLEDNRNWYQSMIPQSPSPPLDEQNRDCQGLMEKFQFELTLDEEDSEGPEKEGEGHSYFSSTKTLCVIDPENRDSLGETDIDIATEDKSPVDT"}, "source": "patent US9527832B2", "about": "“Substituted condensed pyrimidine compounds” (GRÜNENTHAL GMBH, priority 2013, dated 2016)", "biological_target": "T1, human PDE4B1 (Homo sapiens, UniProt Q07343)", "T1 construct": "host or cells: Sf9 cells", "experiment": "cAMP HTRF assay to determine the activity of hPDE4B1", "type": "biochemical", "conditions": "dose response measurements with eight concentrations; reported as ranges", "experimental": "cAMP HTRF® Assay to Determine the Activity of hPDE4B1\nThe inhibiting effect of the compounds on the enzyme activity of human PDE4B1 was measured by the quantification of 5′-adenosine monophosphate (5′-AMP), which is formed from 3′,5′-cyclic adenosine monophosphate (cAMP). Human recombinant enzyme, expressed in Sf9 cells, and the HTRF (homogeneous time-resolved fluorescence) detection method were used in the assay.\nThe test compound or water (control) was mixed with the human recombinant PDE4B1 enzyme (4.8 U) in a buffer consisting of 44.4 mM tris-HCl, 5.28 mM MgCl2, 2.64 mM DTT and 0.044% Tween 20 (pH 7.8). After adding the cAMP enzyme substrate (final concentration 40 nM), the mixture was incubated for 30 minutes at room temperature. Then a fluorescence acceptor (Dye2 marked with cAMP), a fluorescence donor (anti-cAMP antibody marked with a europium cryptate) and the non-specific phosphodiesterase inhibitor IBMX (3-isobutyl-1-methylxanthine; final concentration 1 mM) were added. After 60 minutes the fluorescence transfer, which correlates with the amount of remaining cAMP, was measured with a microplate reader (Rubystar, BMG) at λex=337 nm, λem=620 nm and λem=665 nm. The enzyme activity was calculated from the quotient formed from the measured signal at 665 nm and that at 620 nm. The result was expressed as the percentage inhibition of enzyme activity of the control (without PDE4 inhibitor). The enzyme was omitted for measurement of the basal control.\nIC50 values (IC50=concentration causing a half-maximal inhibition of control specific activity) were derived from dose response measurements with eight different concentrations (n=2; N=1-2).\nLiterature: N. Saldou et al., Comparison of recombinant human PDE4 isoforms: interaction with substrate and inhibitors, Cell. Signal. Vol. 10, No. 6, 427-440, 1998", "note": "Some results were stated once for a whole list of compounds, not compound by compound."}
{"smiles": "COc1ccc(-c2nc3c(c(N4CCc5ccc(OCC(=O)N(C)C)cc54)n2)C[S+]([O-])C3)cc1", "note": "(centres unmarked) [2-20, 2-[[1-[2-(4-Methoxyphenyl)-6-oxo-5,7-dihydro-thieno[3,4-d]pyrimidin-4-yl]-2,3-dihydro-1H-indol-6-yl]oxy]-N,N-dimethyl-acetamide]", "values": [{"measurement": "IC50", "result": "< 100", "unit": "nM"}]}
{"smiles": "CN(C)C(=O)COc1ccc2c(c1)N(c1nc(-c3ccc(C(N)=O)s3)nc3c1CCC3)CC2", "note": "[2-85, 5-(4-(6-(2-(Dimethylamino)-2-oxoethoxy)indolin-1-yl)-6,7-dihydro-5H-cyclopenta[d]pyrimidin-2-yl)thiophene-2-carboxamide]", "values": [{"measurement": "IC50", "result": "< 100", "unit": "nM"}]}
{"smiles": "CN(C)C(=O)COc1ccc2c(c1)N(c1nc(-c3ccnc(F)c3)nc3c1C[S+]([O-])C3)CC2", "note": "(centres unmarked) [2-138, 2-((1-(2-(2-Fluoropyridin-4-yl)-6-oxido-5,7-dihydrothieno[3,4-d]pyrimidin-4-yl)indolin-6-yl)oxy)-N,N-dimethylacetamide]", "values": [{"measurement": "IC50", "result": "< 100", "unit": "nM"}]}
{"smiles": "O=C(O)Cc1ccc2c(c1)CCN2c1nc(-c2ccc(Cl)s2)nc2c1C[S+]([O-])C2", "note": "(centres unmarked) [Compound No. 1-21, 2-(1-(2-(5-Chlor-thiophen-2-yl)-6-oxo-5,7-dihydro-thieno[3,4-d]pyrimidin-4-yl)-2,3-dihydro-1H-indol-5-yl)acetic acid]", "values": [{"measurement": "IC50", "result": "< 100", "unit": "nM"}]}
{"smiles": "O=C(O)Cc1ccc2c(c1)CCN2c1nc(-c2ccc(Cl)s2)nc2c1CS(=O)(=O)C2", "note": "[Compound No. 1-22, 2-(1-(2-(5-Chlor-thiophen-2-yl)-6,6-dioxo-5,7-dihydro-thieno[3,4-d]pyrimidin-4-yl)-2,3-dihydro-1H-indol-5-yl)acetic acid]", "values": [{"measurement": "IC50", "result": "< 100", "unit": "nM"}]}
